Measured values: ChEMBL document CHEMBL1649559, “Prospective comparison of the clinical impacts of heterogeneous vancomycin-intermediate methicillin-resistant Staphylococcus aureus (MRSA) and vancomycin-susceptible MRSA” (2009)

Test system: Staphylococcus aureus
Experiment: microbe, parasite or virus in culture

Work on `CN[C@H](CC(C)C)C(=O)N[C@H]1C(=O)N[C@@H](CC(N)=O)C(=O)N[C@H]2C(=O)N[C@H]3C(=O)N[C@H](C(=O)N[C@H](C(=O)O)c4cc(O)cc(O)c4-c4cc3ccc4O)[C@H](O)c3ccc(c(Cl)c3)Oc3cc2cc(c3O[C@@H]2O[C@H](CO)[C@@H](O)[C@H](O)[C@H]2O[C@H]2C[C@](C)(N)[C@H](O)[C@H](C)O2)Oc2ccc(cc2Cl)[C@H]1O` [VANCOMYCIN] yielded an MIC of no less than 4 mg/L.
